Data published in PMC3712822 (Pharmacotherapy, 2011).
Read-outs that look alike come from different tables or passages of the source.

Settings: human, plasma, oral, AUC0–∞, median (IQR)

- AUC(0-inf) (20 mg, CYP3A5 expressors (n=10), atorvastatin only): 40.7 ng·h/mL
- AUC(0-inf) (20 mg, CYP3A5 nonexpressors (n=13), atorvastatin only): 38.6 ng·h/mL
- AUC(0-inf) (CYP3A5 expressors (n=10), atorvastatin + clarithromycin): 102 ng·h/mL
- AUC(0-inf) (CYP3A5 nonexpressors (n=13), atorvastatin + clarithromycin): 119 ng·h/mL
SMILES: CC(C)c1c(C(=O)Nc2ccccc2)c(-c2ccccc2)c(-c2ccc(F)cc2)n1CC[C@@H](O)C[C@@H](O)CC(=O)O [atorvastatin acid, atorvastatin, reference compound]
